Data as given in PubChem BioAssay AID1259425 (University of Nebraska Medical Center, 2018).
Shown is one part, drawn at random, of about 14,000 deposited reagents. The numbers tell different reagents against one gene apart. A reagent listed more than once was tested more than once; the source does not tell the runs apart. The record does not give: the time to read-out.

- Screen: 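Find knockdowns that reproduce the gene expression pattern seen when KSR1 is lost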 (primary screen)
- System: HCT116 human colon cancer cells
- Knock-down reagent: siRNA pool against human genes, 50 nM siRNA
- Detection: 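mRNA of six signature genes measured together by branched-DNA assay after 50 nM siRNA pool, blank removed, divided by geometric mean of two housekeeping genes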
- Reading the numbers: BNIP3L mRNA: higher = more BNIP3L transcript after knockdown; NDRG1 mRNA: higher = more NDRG1 transcript after knockdown; BNIP3 mRNA: higher = more BNIP3 transcript after knockdown; ALDOC mRNA: higher = more ALDOC transcript after knockdown; ACSL5 mRNA: higher = more ACSL5 transcript after knockdown

| gene | reagent no. | BNIP3L mRNA, set 1 | NDRG1 mRNA, set 1 | BNIP3 mRNA, set 1 | ALDOC mRNA, set 1 | ACSL5 mRNA, set 1 |
| --- | --- | --- | --- | --- | --- | --- |
| SUPT20H | 1 | 0.0712 | 0.177 | 0.206 | 0.0195 | 0.042 |
| TOM1L1 | 1 | 0.115 | 0.148 | 0.263 | 0.0103 | 0.107 |
| SH2D4A | 1 | 0.0704 | 0.119 | 0.257 | 0.0292 | 0.122 |
| FOXP2 | 1 | 0.0907 | 0.0816 | 0.172 | 0.0115 | 0.163 |
| TMSB4Y | 1 | 0.0651 | 0.158 | 0.243 | 0.0317 | 0.245 |
| UPK3A | 1 | 0.0732 | 0.308 | 0.197 | 0.0424 | 0.12 |
| PARL | 1 | 0.0709 | 0.0776 | 0.315 | 0.021 | 0.248 |
| STX16 | 1 | 0.104 | 0.222 | 0.419 | 0.0382 | 0.174 |
| GRIN2D | 1 | 0.0775 | 0.255 | 0.221 | 0.0291 | 0.201 |
| SF3B3 | 1 | 0.316 | 0.876 | 0.32 | 0.0548 | 0.0569 |
| PPP2R3A | 1 | 0.0408 | 0.0633 | 0.212 | 0.0108 | 0.218 |
| SDF2L1 | 1 | 0.0653 | 0.321 | 0.611 | 0.0329 | 0.381 |
| SIRT5 | 1 | 0.0668 | 0.414 | 0.37 | 0.0542 | 0.086 |
| SOSTDC1 | 1 | 0.127 | 0.197 | 0.585 | 0.0328 | 0.177 |
| YARS1 | 1 | 0.0909 | 0.217 | 0.254 | 0.04 | 0.13 |
| ARIH2 | 1 | 0.1 | 0.185 | 0.242 | 0.0247 | 0.0891 |
| STXBP2 | 1 | 0.0871 | 0.334 | 0.299 | 0.0202 | 0.113 |
| NPAS1 | 1 | 0.0556 | 0.209 | 0.155 | 0.0254 | 0.124 |
| C1GALT1 | 1 | 0.252 | 0.247 | 0.322 | 0.101 | 0.495 |
| ABCB1 | 1 | 0.17 | 0.231 | 0.358 | 0.0411 | 0.272 |
| ATP1B1 | 1 | 0.157 | 0.195 | 0.303 | 0.0416 | 0.0562 |
| ZFP64 | 1 | 0.0911 | 0.597 | 0.467 | 0.0295 | 0.291 |
| GALNT6 | 1 | 0.112 | 0.148 | 0.262 | 0.0109 | 0.215 |
| EAF2 | 1 | 0.0768 | 0.1 | 0.245 | 0.0065 | 0.0552 |
| ADGRF1 | 1 | 0.133 | 0.506 | 0.523 | 0.0412 | 0.343 |
| ADGRF1 | 2 | 0.11 | 0.177 | 0.54 | 0.0684 | 0.143 |
| CFL1 | 1 | 0.08 | 0.508 | 0.395 | 0.0476 | 0.384 |
| ZEB1 | 1 | 0.0908 | 0.133 | 0.2 | 0.0126 | 0.14 |
| EPS15 | 1 | 0.0964 | 0.151 | 0.249 | 0.011 | 0.222 |
| LINC00574 | 1 | 0.14 | 0.265 | 0.382 | 0.0205 | 0.285 |
| SAGE1 | 1 | 0.111 | 0.0765 | 0.237 | 0.0174 | 0.183 |
| RABEP2 | 1 | 0.124 | 0.231 | 0.26 | 0.061 | 0.187 |
| GPR158 | 1 | 0.201 | 0.256 | 0.294 | 0.0341 | 0.426 |
| TTC28 | 1 | 0.123 | 0.189 | 0.276 | 0.0208 | 0.212 |
| KIF13B | 1 | 0.0673 | 0.081 | 0.263 | 0.00665 | 0.15 |
| AVPR1B | 1 | 0.198 | 0.699 | 0.363 | 0.0117 | 0.547 |
| AVPR1B | 1 | 0.154 | 0.552 | 0.281 | 0.0364 | 0.374 |
| SNN | 1 | 0.134 | 0.203 | 0.495 | 0.0207 | 0.255 |
| LAPTM4B | 1 | 0.179 | 0.729 | 0.406 | 0.0145 | 0.274 |
| UHRF2 | 1 | 0.0455 | 0.226 | 0.25 | 0.0138 | 0.218 |
| RYK | 1 | 0.0986 | 0.129 | 0.288 | 0.00985 | 0.265 |
| AIMP1 | 1 | 0.0936 | 0.388 | 0.216 | 0.00964 | 0.217 |
| TRIR | 1 | 0.101 | 0.538 | 0.2 | 0.0239 | 0.446 |
| BRDT | 1 | 0.0561 | 0.209 | 0.267 | 0.0159 | 0.2 |
| MMP24 | 1 | 0.0987 | 0.485 | 0.287 | 0.0256 | 0.259 |
| METTL9 | 1 | 0.128 | 0.0942 | 0.512 | 0.047 | 0.111 |
| PCBP1 | 1 | 0.137 | 0.335 | 0.324 | 0.0637 | 0.16 |
| ATN1 | 1 | 0.0625 | 0.0917 | 0.327 | 0.00784 | 0.24 |
| SPCS3 | 1 | 0.0643 | 0.09 | 0.227 | 0.019 | 0.101 |
| TUT1 | 1 | 0.108 | 0.421 | 0.335 | 0.0208 | 0.17 |

Already shown: 8 of the entries above.
| gene | reagent no. | BNIP3L mRNA, set 1 | NDRG1 mRNA, set 1 | BNIP3 mRNA, set 1 | ALDOC mRNA, set 1 | ACSL5 mRNA, set 1 |
| --- | --- | --- | --- | --- | --- | --- |
| ARIH2 | 1 | 0.1 | 0.185 | 0.242 | 0.0247 | 0.0891 |
| STXBP2 | 1 | 0.0871 | 0.334 | 0.299 | 0.0202 | 0.113 |
| NPAS1 | 1 | 0.0556 | 0.209 | 0.155 | 0.0254 | 0.124 |
| C1GALT1 | 1 | 0.252 | 0.247 | 0.322 | 0.101 | 0.495 |
| ABCB1 | 1 | 0.17 | 0.231 | 0.358 | 0.0411 | 0.272 |
| ATP1B1 | 1 | 0.157 | 0.195 | 0.303 | 0.0416 | 0.0562 |
| ZFP64 | 1 | 0.0911 | 0.597 | 0.467 | 0.0295 | 0.291 |
| GALNT6 | 1 | 0.112 | 0.148 | 0.262 | 0.0109 | 0.215 |
